Test results taken from PubChem BioAssay AID652058 (Broad Institute, 2013).
About 870 (72%) of roughly 1,200 compounds were called active. Inconclusive results (about 3%) are left out.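 Rule for the calls: active = every test run fits a falling curve whose half-maximal concentration is at most twice the top valid dose; inconclusive = runs disagree, or flat 30 to 70% inhibition, or poor fit; inactive = every run inactive: flat, rising or weaker potency.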 The set was probably picked from earlier hits. The entries are a selection whose mix differs from that of the whole data set. Entries with a potency or affinity are not part of this list.

test: blockers of HIV-1 ZM109 envelope-driven cell-cell fusion – HeLa effector, CEM target cells, luciferase, cherry-pick, dose response (AID 652058); details: HeLa Env/CEM cell fusion, 16-24 h; at 35 µM (top of the series);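 note: 0% = neutral control wells and -100% = maraviroc 300 nM wells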

Compound | activity change, negative = inhibition
O=C(Nc1cccc(OC(=O)N2CCOCC2)c1)N1CCOCC1 | inactive: 16%
CCC(=NCCc1c[nH]c2ccccc12)c1c(O)n(C)c(=O)n(C)c1=O | inactive: -28.9%
O=C1NC2C(=CC(O)C(O)C2O)c2cc3c(cc21)OCO3 (centres undefined) | inactive: -105%
CCC(=NCc1ccc(F)cc1)c1c(O)n(C)c(=O)n(C)c1=O | inactive: -12.8%
